Results: paper doi:10.1101/2025.07.15.664947
Positions count from the first letter of the chain named. Names and notes keep the numbering of the source. These are yes or no findings as the source states them, for the method shown. Binding seen in cells or lysates may run through a third protein. Some binding calls cover weakened binding; strength is not graded here. Sequences can lack the tags named with a protein. Values belong to the molecule of their own block, whether it stands above or below them.

Amino acid sequences for entries named in this document (tags omitted).
UniProt Q9UBN7: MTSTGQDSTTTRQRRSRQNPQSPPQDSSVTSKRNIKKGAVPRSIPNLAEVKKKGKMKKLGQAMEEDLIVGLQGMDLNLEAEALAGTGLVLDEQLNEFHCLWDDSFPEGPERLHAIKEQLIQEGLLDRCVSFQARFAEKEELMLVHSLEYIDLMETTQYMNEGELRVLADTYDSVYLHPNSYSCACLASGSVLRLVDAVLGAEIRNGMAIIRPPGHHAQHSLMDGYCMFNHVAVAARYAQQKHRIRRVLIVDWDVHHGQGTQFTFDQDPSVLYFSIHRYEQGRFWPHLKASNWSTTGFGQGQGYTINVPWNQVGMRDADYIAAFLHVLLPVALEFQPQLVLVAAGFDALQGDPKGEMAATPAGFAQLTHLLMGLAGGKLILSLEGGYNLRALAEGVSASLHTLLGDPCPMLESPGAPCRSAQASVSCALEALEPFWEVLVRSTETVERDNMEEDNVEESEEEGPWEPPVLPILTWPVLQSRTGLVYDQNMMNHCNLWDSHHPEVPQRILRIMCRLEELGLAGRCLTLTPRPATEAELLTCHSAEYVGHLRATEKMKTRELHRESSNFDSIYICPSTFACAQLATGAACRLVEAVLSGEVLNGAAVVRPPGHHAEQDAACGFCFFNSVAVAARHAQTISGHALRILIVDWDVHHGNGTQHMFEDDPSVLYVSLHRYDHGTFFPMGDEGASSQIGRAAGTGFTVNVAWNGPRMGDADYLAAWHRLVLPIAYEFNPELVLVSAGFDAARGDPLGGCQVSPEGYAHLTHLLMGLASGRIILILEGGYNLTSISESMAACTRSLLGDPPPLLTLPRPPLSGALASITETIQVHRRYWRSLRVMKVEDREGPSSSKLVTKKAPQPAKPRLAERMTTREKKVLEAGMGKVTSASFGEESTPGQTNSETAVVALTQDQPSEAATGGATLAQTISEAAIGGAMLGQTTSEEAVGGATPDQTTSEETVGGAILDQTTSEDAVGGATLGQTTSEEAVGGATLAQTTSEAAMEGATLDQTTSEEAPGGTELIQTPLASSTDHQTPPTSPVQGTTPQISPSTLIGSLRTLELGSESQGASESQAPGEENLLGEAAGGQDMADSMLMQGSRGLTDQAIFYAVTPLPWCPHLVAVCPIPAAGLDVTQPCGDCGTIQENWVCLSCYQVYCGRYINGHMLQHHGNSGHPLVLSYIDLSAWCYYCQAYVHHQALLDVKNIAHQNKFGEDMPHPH

What was measured:
Experiment in all cases: co-IP
M1-Spastin^S245X-FLAG = biological target: T1, M1-Spastin^S245X-FLAG (UniProt Q9UBP0)
T1 sequence: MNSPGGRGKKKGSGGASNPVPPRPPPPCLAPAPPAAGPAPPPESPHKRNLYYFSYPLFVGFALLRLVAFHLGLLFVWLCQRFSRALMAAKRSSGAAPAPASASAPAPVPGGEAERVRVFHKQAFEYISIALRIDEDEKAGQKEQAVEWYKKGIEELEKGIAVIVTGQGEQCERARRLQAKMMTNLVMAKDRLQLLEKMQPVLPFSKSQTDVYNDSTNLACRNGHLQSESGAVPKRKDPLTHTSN

M87-Spastin^WT-FLAG = biological target: T2, M87-Spastin^WT-FLAG (UniProt Q9UBP0)
T2 sequence: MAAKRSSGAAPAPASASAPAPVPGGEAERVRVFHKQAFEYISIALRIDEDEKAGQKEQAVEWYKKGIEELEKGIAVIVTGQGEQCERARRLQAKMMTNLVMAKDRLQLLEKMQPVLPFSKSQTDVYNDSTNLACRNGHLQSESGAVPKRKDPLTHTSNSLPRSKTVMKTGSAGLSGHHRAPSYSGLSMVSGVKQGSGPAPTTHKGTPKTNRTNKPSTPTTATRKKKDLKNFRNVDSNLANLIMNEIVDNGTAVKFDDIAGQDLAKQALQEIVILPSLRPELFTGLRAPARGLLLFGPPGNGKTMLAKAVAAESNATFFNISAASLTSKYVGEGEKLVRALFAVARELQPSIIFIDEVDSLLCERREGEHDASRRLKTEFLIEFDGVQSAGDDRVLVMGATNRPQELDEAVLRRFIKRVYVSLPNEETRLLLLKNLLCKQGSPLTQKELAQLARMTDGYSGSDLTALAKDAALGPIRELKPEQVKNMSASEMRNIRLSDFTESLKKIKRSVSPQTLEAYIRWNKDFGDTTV

M1-Spastin^C448Y-FLAG = biological target: T3, M1-Spastin^C448Y-FLAG (UniProt Q9UBP0)
T3 sequence: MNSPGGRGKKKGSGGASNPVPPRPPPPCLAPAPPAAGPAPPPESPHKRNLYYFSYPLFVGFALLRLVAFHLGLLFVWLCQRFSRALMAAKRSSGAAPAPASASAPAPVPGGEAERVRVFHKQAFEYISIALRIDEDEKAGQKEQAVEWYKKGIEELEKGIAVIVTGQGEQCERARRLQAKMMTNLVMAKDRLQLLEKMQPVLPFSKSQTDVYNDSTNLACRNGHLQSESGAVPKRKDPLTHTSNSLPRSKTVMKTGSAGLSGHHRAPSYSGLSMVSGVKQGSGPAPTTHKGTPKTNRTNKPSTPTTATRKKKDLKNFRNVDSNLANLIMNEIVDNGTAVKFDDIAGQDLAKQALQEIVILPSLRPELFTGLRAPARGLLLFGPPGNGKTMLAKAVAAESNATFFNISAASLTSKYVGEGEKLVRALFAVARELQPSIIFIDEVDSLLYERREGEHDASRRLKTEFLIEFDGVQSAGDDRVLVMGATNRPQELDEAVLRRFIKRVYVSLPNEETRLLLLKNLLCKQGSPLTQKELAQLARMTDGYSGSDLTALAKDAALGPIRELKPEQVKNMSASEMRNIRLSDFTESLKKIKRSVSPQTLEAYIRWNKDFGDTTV

M1-Spastin^WT-FLAG = biological target: T4, M1-Spastin^WT-FLAG (UniProt Q9UBP0)
T4 sequence: T3 sequence with Y448C

[1] = biological target: mCherry-tagged HDAC6 (histone deacetylase 6) (UniProt Q9UBN7)

B2: M1-Spastin^S245X-FLAG (domain or fragment, UniProt Q9UBP0 1-244)
chain: T1 sequence
binding [1]: binds

B3: M1-Spastin^WT-FLAG (protein, UniProt Q9UBP0 1-616)
chain: T3 sequence with Y448C
binding [1]: binds

B4: M1-Spastin^C448Y-FLAG (protein, UniProt Q9UBP0 1-616)
chain: T3 sequence
binding [1]: binds

Now from value to molecule:

binding (M1-Spastin^S245X-FLAG): binds
binding (M87-Spastin^WT-FLAG): no binding
binding (M1-Spastin^C448Y-FLAG): binds
binding (M1-Spastin^WT-FLAG): binds
Molecule: endogenous HDAC6 (histone deacetylase 6) (from UniProt Q9UBN7 1-1215) (enzyme)

binding [1]: no binding
B1: M87-Spastin^WT-FLAG (protein, UniProt Q9UBP0 87-616)
chain: T2 sequence
